In PubChem BioAssay AID540256 (National Center for Advancing Translational Sciences (NCATS), 2011):
Among all 300,000 compounds or so, about 3,700 (1.2%) were called active. The inconclusive results got no clear call from the source; some entries with a clear call stand among them for comparison. Calls follow the shape of the full dose curve; tested in HEK293 cells. Where the call is inconclusive, the potency comes from a doubtful curve fit.

experiment: qHTS for Inhibitors of binding or entry into cells for Lassa Virus; settings: Lassa virus pseudotype entry inhibition, cell reporter; activity change, negative = inhibition: at 37.9 µM (top of the series) unless noted; also: nearly all actives have a fitted effect of over 50% in size
% is scaled to controls: 0 for no effect and ±100 for the full control effect; potency is read from the fitted curve at half-maximal effect.

Compound | activity change, negative = inhibition | Potency
CCOCCCNC(=O)/C(C#N)=C/c1ccc(Cl)c([N+](=O)[O-])c1 | inactive: 2.27% | –
CN(C)S(=O)(=O)Oc1ccsc1C(=O)Nc1ccc(Br)cc1 | – | inconclusive: 17.8 µM [inhibitor, partial curve, poor fit]
O=C(Nc1ccccc1C(=O)Nc1ccc(F)cc1)c1ccco1 | – | inconclusive: 0.794 µM [activator, full curve, poor fit]
COc1cc(/C=C2\CCc3ccccc3C2=O)cc(OC)c1OC | – | inconclusive: 25.9 µM [inhibitor, single point]
CCCC1Cc2c(sc3ncnc(N)c23)CO1 (configuration not stated) | – | inconclusive: 1.26 µM [activator, single point]
Cc1ccc(C(=O)N2CCN(c3cccc(C)c3C)CC2)cc1S(=O)(=O)N1CCOCC1 | – | inconclusive: 35.5 µM [inhibitor, single point]
Cc1ccc(NC(=O)/C(=C\c2cccs2)NC(=O)c2ccccc2)cc1 | inactive: 11.2% | –
Cc1ccc(CNc2ccc3cc(S(=O)(=O)N4CCCCC4)ccc3n2)cc1 | – | inconclusive: 22.4 µM [inhibitor, single point]
O=C(c1cnc(N2CCN(c3ccccn3)CC2)c2ccccc12)N1CCN(c2cccc(Cl)c2)CC1 | – | inconclusive: 22.4 µM [inhibitor, single point]
C1=C(c2ccccc2)CCNC1 | – | inconclusive: 35.5 µM [inhibitor, single point]
O=C(COC(=O)C1(c2ccc(F)cc2)CCCC1)N1CCN(C(=O)c2ccco2)CC1 | inactive: -19% | –
Cc1cc(C)cc(N=Cc2c(O)c3ccccc3oc2=O)c1 | – | inconclusive: 35.5 µM [inhibitor, single point]
CCOC(=O)c1ccc(Nc2nn3c(=O)c4ccccc4nc3s2)cc1 | – | inconclusive: 12.6 µM [activator, single point]
COc1ccc(OC)c(NC(=O)c2ccc3c(Cl)c4c(nc3c2)CCCC4)c1 | – | inconclusive: 14.1 µM [activator, single point]
CCc1cc(C(=O)Nc2ccccc2)cs1 | – | inconclusive: 6.51 µM [activator, single point]
Cc1cc(=O)n2[nH]c(-c3ccc(Cl)cc3)cc2n1 | inactive: 8.87% | –
Cc1nn2cc(-c3ncc(C(F)(F)F)cc3Cl)cnc2c1Br | – | inconclusive: 7.94 µM [inhibitor, partial curve]
Cc1cccc(N(C)C(=O)c2cc3c(=O)[nH]c4ccc(C)cc4c3s2)c1 | – | inconclusive: 1 µM [inhibitor, full curve, poor fit]
CCOC(=O)c1scc(-c2ccc(C)cc2)c1S(=O)(=O)Nc1cc(OC)ccc1OC | – | inconclusive: 3.98 µM [inhibitor, full curve, poor fit]
CC(=Nc1cc(C(=O)c2ccccc2)ccc1N)C1=C(O)CC(C)(C)CC1=O | – | inconclusive: 11.2 µM [activator, single point]
CCCCN(C)C(=O)c1ccc2c(c1)N(Cc1cccc(F)c1)C(=O)c1ccccc1S2 | – | inconclusive: 15.8 µM [inhibitor, single point]

Compound | activity change, negative = inhibition | Potency
CCCn1c(=O)c2ccccc2n2c(SCc3c(C(=O)OCC)oc4ccccc34)nnc12 | – | inconclusive: 7.3 µM [inhibitor, single point]
CCCCCCC(=O)N(O)C1CC(=O)N(Cc2ccccc2)C1=O (configuration not stated) | – | inconclusive: 18.3 µM [inhibitor, single point]
Clc1ccc(-n2c(Cc3ccccc3)nnc2SCc2nc(-c3cccs3)no2)cc1 | – | inconclusive: 1 µM [inhibitor, full curve, poor fit]
CCCCN(C(=O)CN1C(=O)C2CCCCC2C1=O)c1c(N)n(CCC)c(=O)[nH]c1=O (configuration not stated) | – | inconclusive: 35.5 µM [activator, single point]
COC(=O)C(F)(Sc1c(C)n(C)n(-c2ccccc2)c1=O)C(F)(F)F (configuration not stated) | – | inconclusive: 23.1 µM [activator, single point]
CCc1ccc(S(=O)(=O)Nc2nccs2)cc1 | inactive: -19.7% | –
CN(C)CCCC(C)(O)C(C)(C)c1ccccc1 (configuration not stated) | inactive: 16.1% | –
Nc1c(N(Cc2ccccc2)C(=O)CCc2ccccc2)c(=O)[nH]c(=O)n1Cc1ccccc1 | – | inconclusive: 1.26 µM [inhibitor, partial curve, poor fit]
Nc1ccc(Nc2nc(-c3ccncc3)cs2)cc1 | – | inconclusive: 16.4 µM [inhibitor, single point]
O=C(NC(NC(=S)Nc1cccc(Cl)c1)C(Cl)(Cl)Cl)OCc1ccccc1 (configuration not stated) | – | inconclusive: 29.1 µM [inhibitor, single point]
O=C(COc1coc(CN2CCc3ccccc3C2)cc1=O)Nc1cccc(F)c1 | – | inconclusive: 35.5 µM [activator, partial curve, poor fit]
COc1cccc(-c2nc(CS(=O)(=O)c3ccccc3)no2)c1 | – | inconclusive: 35.5 µM [inhibitor, single point]
COc1ccc(CC2(C)OC(c3ccncc3)=NN2C(C)=O)cc1 (configuration not stated) | – | inconclusive: 11.2 µM [inhibitor, partial curve, poor fit]
Cc1cccc(OCCCC(=O)Nc2nccs2)c1C | inactive: 4.28% [at 46.1 µM] | –
Cc1ccc(Cl)cc1NC(=O)COC(=O)Cn1cnc2c1c(=O)n(C)c(=O)n2C | – | inconclusive: 0.199 µM [inhibitor, full curve, poor fit]
Cc1nc(N2CCCC2)c2c(C(=O)N3CCN(c4cc(Cl)ccc4C)CC3)c(C)oc2n1 | – | inconclusive: 35.5 µM [inhibitor, single point]
Cc1ccc(-c2c(C)c(-c3ccc(F)cc3)nc(N)c2C#N)o1 | inactive: 0.279% | –
CC(C)CNC(=O)c1cc(-c2ccc(Br)cc2)on1 | – | inconclusive: 2.59 µM [activator, partial curve]
CC1CCN(C(=O)COC(=O)CNC(=O)c2ccccc2F)CC1 | – | inconclusive: 35.5 µM [inhibitor, single point]
Cc1ccccc1OCC(=O)NS(=O)(=O)c1ccc(Cl)cc1 | inactive: 4.02% | –
Cc1ccc2nc(-c3ccccc3)cc(C(=O)N3CC(C)OC(C)C3)c2c1 (configuration not stated) | – | inconclusive: 0.126 µM [activator, full curve, poor fit]

2 records drawn at random from the list so far:
Compound | activity change, negative = inhibition | Potency
CCOCCCNC(=O)/C(C#N)=C/c1ccc(Cl)c([N+](=O)[O-])c1 | inactive: 2.27% | –
CCCCN(C)C(=O)c1ccc2c(c1)N(Cc1cccc(F)c1)C(=O)c1ccccc1S2 | – | inconclusive: 15.8 µM [inhibitor, single point]
